Screen size: about 53,000 sequences; about 3,700 (7%) were called active.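 How the source made its calls: active means gene knockdowns whose robust z-score for IL-1 alpha signal is at least 2 or at most -2, so actives lie on both sides; inactive means the rest.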 Some of the results follow.
Assay: Components of the Cytosolic LPS Sensing Pathway: Gene Identification via Genome-wide siRNA Screen;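 further: robust z of the log signal after scaling to non-targeting control siRNA wells of the plate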
Settings: RAW264.7 macrophages, IL-1a HTRF, actives lie on both sides, screened at 100 nM (by protocol), cells primed 5 h with Pam3CSK4 first
In short: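 IL-1a HTRF of supernatants after 24 hour LipidA transfection of Pam3CSK4-primed (5 hours) RAW264.7 cells, 48h post-siRNA transfection (100 nM). Scores: percent of plate negative-control median, then log-based robust z-score.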

Row | Sequence | z-score
1 | GGUAAAGUUCACGGUUCCCTT against Fau | inactive: -0.333
2 | GGCUUUCCCAAAGACUUCUTT against Col11a2 | inactive: 0.518
3 | CCUGCCAAUCUGUCUAAGUTT against Haus1 | inactive: -0.121
4 | GCACACCUAGAAACAACCGTT against Mfap3l | inactive: -1.38
5 | GCAUAUCUAUAACAGAGCCTT against Rnase2a | inactive: -1.23
6 | CCUCGUAUUAGAUGAUGCATT against Snrpe | active: -2.79
7 | CCACCUAUCCUAUUGACGATT against Gfus | inactive: -1.12
8 | GCUCUAGGAAUUCCUCACUTT against Bambi | inactive: -1.93
9 | GGGUGUACAUUUUUCUUGUTT against 1700024B05Rik | inactive: -0.662
10 | GCCCGCAUUGCCUUUUGAATT against Rai2 | inactive: -0.846
11 | GCCAAGUCCCGACAAGUAGTT against Rpl26 | inactive: -0.122
12 | GGUCUUUGACAUUUUGAAUTT against Lrrk2 | inactive: -0.295
13 | GCUGUUGCUGGCUAUUCUGTT against Eef2kmt | active: -2.3
14 | GGAAGGAUUGGGUUAUAGATT against Gpank1 | inactive: -0.157
15 | CCCGACCUCAACAUUUGUATT against Bmp2k | inactive: -0.265
16 | GCAAUAGUGAGCACGCCAGTT against Col18a1 | inactive: 0.307
17 | CGAAAUCCAUAGAUUUACUTT against Daw1 | inactive: 0.0506
18 | GUGAAAAAAUACAUGACCCTT against Vmn1r8 | inactive: 0.555
19 | CCGCAUGGAGCAUCUAAUATT against Tuft1 | inactive: 0.04
20 | GCUGCUUGCUGACCUCCUATT against Olfr522 | inactive: 0.358
21 | CCUAUGUCUAACAGAUUUGTT against Lratd2 | inactive: 0.821
22 | GGCCUACAUCAUUCACUCCTT against Olfr64 | inactive: -0.384
23 | GCUUCACUAAUGUUGGUCUTT against Olfr958 | inactive: 0.33
24 | GGAGUGUAAUCCUCCAUCATT against Ilkap | inactive: 1.74
25 | GGUGUUGAUGUAAAAACACTT against Egf | inactive: 0.0378
26 | GGAUGACUGUAUCUGUACUTT against Ttc3 | inactive: 0.0197
27 | GCAUGUCGUCUGAGAAAGUTT against Pgr | inactive: -0.748

Row | Sequence | z-score
28 | CGGAUAAGCGGAUCUUUGUTT against Cad | inactive: 0.298
29 | GCAUUCGGAAGAGUCAUGUTT against Hnf4g | inactive: -1.26
30 | CGUGGAGUAAGGAGAAUAUTT against Ints7 | inactive: 0.364
31 | GCUUCCUUAUAGAAUUAGATT against Fam91a1 | inactive: 1.08
32 | GGAGACCUCGAUCACAUCATT against Dut | inactive: -0.472
33 | CCUGGAUGGUCAUAUUAAGTT against Lats2 | inactive: -0.117
34 | GCUACAAGUGCCACAGAUATT against Doxl2 | inactive: 1.74
35 | GGUGUUAAUUGUAGCAGGGTT against Olfr920 | inactive: -0.0142
36 | GGCUUCGUGGCAAAGUCAUTT against Sucla2 | inactive: 0.37
37 | GGAUAACCUUCUCUGGAGATT against Fbxw7 | inactive: 0.333
38 | GGAAAACAGGAAAAUCCAUTT against Olfr1076 | inactive: 1.57
39 | CCAUGUAUCAAUGAUGAUGTT against C6 | inactive: -0.398
40 | GCCUCUAAGAAUUCAGGAATT against Timm10b | inactive: 0.28
41 | GGAAAAACUGAGAAAACUUTT against Lyrm1 | active: -2.41
42 | GGUCUUACAGUGGAGAGCATT against Dip2c | inactive: -0.415
43 | GAAGUUGCACUUUGGCCAGTT against Gimap1 | inactive: -0.403
44 | UGUACUGAUACCUAUUUCATT against Olfr1251 | inactive: -0.899
45 | CGAGGUGGUCAUAAAGAACTT against Gas8 | inactive: 0.909
46 | GCAGUUACCAGAGAUUGUCTT against Gpr107 | inactive: 0.651
47 | CCGUUUAACAGCAUAUCAUTT against Gmnc | inactive: 0.497
48 | GGUACAGUGAUUGUACAACTT against Atrx | inactive: 0.748
49 | GCCAGAUGGAUCGAAAGAUTT against Numa1 | inactive: 0.166
50 | CCAGAAACGAUGCAUUCAUTT against Olfr124 | active: 2
51 | GGUAGAAAAACAAUACCGGTT against Ikbip | inactive: 0.033
52 | GGGUCAAAGCCCAUGGCAATT against Hbb-y | inactive: 0.526
53 | CCAUGUCGUAUGUGAUUCUTT against Hils1 | inactive: -0.528

Reprinted at random: 4 entries already listed
Row | Sequence | z-score
22 | GGCCUACAUCAUUCACUCCTT against Olfr64 | inactive: -0.384
44 | UGUACUGAUACCUAUUUCATT against Olfr1251 | inactive: -0.899
2 | GGCUUUCCCAAAGACUUCUTT against Col11a2 | inactive: 0.518
8 | GCUCUAGGAAUUCCUCACUTT against Bambi | inactive: -1.93

Reference: PubChem BioAssay AID1508600 (Functional Genomics Laboratory (NCATS/FGL), 2020)
